Article PMC9679496
These are yes or no findings as the source states them, for the method shown. Binding seen in cells or lysates may run through a third protein. Some results given as binding are weak or reduced against the parent protein; the word gives no strength.

Protein sequences, listed by entry. Tags and fused reporters are not part of them.
UniProt Q9Y5W3: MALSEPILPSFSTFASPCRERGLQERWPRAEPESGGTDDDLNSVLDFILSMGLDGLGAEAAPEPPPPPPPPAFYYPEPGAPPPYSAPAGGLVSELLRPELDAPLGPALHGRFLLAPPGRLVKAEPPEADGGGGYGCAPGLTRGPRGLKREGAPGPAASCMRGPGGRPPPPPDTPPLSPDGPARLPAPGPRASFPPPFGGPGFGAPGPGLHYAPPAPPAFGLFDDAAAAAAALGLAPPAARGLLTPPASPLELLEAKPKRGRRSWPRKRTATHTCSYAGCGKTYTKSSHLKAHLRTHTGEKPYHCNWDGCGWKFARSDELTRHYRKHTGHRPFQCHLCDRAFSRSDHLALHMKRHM
UniProt Q09472: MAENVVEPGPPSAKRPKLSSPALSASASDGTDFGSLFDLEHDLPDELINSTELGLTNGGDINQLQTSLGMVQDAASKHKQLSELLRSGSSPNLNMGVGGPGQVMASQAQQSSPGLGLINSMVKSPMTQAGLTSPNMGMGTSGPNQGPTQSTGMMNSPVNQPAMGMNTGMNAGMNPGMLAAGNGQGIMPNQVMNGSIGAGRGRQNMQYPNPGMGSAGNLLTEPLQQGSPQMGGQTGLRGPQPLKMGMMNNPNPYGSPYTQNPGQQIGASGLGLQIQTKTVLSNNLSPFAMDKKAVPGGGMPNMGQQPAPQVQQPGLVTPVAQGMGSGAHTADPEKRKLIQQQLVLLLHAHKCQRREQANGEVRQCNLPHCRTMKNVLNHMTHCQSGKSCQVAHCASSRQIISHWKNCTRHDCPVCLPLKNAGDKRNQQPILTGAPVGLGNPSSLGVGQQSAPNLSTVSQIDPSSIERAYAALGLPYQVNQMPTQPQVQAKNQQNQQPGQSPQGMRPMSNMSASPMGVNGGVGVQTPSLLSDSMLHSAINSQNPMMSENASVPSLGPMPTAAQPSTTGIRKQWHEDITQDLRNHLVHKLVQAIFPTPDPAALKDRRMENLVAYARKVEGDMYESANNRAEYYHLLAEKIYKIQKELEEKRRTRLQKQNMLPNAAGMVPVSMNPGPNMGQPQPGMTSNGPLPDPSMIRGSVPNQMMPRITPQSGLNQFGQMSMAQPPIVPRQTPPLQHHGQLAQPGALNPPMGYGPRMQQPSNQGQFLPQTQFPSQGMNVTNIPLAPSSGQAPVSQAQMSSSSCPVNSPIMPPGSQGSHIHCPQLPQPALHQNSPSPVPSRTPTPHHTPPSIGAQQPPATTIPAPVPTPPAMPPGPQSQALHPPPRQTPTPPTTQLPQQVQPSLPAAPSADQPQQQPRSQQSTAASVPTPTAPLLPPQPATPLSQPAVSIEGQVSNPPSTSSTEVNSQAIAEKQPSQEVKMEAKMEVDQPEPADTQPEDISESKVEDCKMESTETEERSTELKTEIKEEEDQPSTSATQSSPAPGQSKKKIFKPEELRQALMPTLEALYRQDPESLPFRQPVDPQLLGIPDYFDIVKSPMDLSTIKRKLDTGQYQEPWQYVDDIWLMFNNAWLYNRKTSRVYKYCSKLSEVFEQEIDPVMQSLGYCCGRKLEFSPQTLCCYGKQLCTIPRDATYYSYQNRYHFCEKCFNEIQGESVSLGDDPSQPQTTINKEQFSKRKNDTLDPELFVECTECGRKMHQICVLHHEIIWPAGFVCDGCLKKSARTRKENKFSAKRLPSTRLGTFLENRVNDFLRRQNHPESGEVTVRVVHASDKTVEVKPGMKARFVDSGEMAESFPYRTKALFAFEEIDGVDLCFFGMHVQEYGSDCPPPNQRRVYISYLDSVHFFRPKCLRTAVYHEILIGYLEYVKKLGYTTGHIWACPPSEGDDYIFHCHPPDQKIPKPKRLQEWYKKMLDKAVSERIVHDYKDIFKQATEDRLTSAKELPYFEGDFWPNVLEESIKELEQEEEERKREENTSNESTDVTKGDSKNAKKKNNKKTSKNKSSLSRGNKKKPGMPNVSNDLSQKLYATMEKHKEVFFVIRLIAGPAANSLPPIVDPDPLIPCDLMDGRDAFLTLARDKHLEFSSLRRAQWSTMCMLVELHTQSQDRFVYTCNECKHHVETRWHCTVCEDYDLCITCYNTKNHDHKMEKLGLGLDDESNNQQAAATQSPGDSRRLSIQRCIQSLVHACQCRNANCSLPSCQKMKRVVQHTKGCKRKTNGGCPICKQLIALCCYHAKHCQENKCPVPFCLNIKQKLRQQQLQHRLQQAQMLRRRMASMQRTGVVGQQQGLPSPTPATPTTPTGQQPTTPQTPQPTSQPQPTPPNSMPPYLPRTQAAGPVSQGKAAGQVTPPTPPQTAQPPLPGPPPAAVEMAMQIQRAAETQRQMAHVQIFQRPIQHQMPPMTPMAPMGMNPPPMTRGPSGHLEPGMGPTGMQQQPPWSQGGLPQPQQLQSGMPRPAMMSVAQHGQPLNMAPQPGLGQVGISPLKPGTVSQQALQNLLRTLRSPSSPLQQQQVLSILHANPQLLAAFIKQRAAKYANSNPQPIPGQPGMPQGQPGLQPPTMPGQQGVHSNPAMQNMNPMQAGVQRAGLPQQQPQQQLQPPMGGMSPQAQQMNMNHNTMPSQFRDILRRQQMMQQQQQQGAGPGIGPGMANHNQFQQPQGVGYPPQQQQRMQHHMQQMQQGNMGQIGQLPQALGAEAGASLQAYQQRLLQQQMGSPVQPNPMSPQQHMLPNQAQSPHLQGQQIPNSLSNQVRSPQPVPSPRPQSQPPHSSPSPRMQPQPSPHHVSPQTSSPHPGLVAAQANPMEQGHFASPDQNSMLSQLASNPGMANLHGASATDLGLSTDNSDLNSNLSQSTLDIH
UniProt O43474: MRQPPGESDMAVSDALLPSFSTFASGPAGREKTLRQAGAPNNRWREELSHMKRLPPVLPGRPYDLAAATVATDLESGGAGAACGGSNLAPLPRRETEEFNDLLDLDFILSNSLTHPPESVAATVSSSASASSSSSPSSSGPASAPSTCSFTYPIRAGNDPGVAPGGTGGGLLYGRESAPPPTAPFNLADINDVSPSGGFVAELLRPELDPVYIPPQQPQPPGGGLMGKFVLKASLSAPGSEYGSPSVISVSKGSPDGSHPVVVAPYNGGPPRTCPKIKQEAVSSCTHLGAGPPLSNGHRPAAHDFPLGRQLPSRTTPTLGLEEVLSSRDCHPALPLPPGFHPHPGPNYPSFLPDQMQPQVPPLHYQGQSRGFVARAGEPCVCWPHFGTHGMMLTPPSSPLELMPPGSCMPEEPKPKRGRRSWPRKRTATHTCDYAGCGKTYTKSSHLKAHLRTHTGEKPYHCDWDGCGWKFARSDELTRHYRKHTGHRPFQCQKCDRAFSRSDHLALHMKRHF

Tests used:
[1] = molecular target: Krüppel Like Factor-2 (KLF2), endogenous in human lung microvascular endothelial cells (human (endogenous in hLMVECs)) (UniProt Q9Y5W3); assay: co-IP; endogenous proteins; RIPA buffer solubilized nuclear lysates of confluent hLMVECs; reciprocal IP with anti-KLF2, anti-KLF4, anti-p300 or control IgG, Protein-G Sepharose, 4°C, washed 5 times with Tris pH 7.5; Western blot
[2] = molecular target: p300, endogenous in human lung microvascular endothelial cells (human (endogenous in hLMVECs)) (UniProt Q09472); assay: as above
[3] = molecular target: Krüppel Like Factor-4 (KLF4), endogenous in human lung microvascular endothelial cells (human (endogenous in hLMVECs)) (UniProt O43474); assay: as above
[4] = molecular target: GST-KLF4-TAD (human KLF4 amino acids 91-116, transactivation domain, fused to GST) (human); assay: pull-down; Sepharose-4B bound GST-fusion proteins incubated with hLMVEC nuclear extracts at 4°C, washed 5 times with nuclear extraction buffer; Western blot with anti-KLF2; only the target purified

Row | Substance | binding [1] | binding [2] | binding [3] | binding [4]
1 | Krüppel Like Factor-4 (KLF4), endogenous in human lung microvascular endothelial cells (from UniProt O43474 1-513) | binds | binds | – | –
2 | p300, endogenous in human lung microvascular endothelial cells (from UniProt Q09472 1-2414) | binds | – | binds | –
3 | Krüppel Like Factor-2 (KLF2), endogenous in human lung microvascular endothelial cells (from UniProt Q9Y5W3 1-355) | – | binds | binds | binds
